{
  "sequences": {"note": "Amino acid sequences for entries named in this document (tags omitted). A change or cut given only in a name is not applied to a line headed by its entry.", "UniProt Q12933": "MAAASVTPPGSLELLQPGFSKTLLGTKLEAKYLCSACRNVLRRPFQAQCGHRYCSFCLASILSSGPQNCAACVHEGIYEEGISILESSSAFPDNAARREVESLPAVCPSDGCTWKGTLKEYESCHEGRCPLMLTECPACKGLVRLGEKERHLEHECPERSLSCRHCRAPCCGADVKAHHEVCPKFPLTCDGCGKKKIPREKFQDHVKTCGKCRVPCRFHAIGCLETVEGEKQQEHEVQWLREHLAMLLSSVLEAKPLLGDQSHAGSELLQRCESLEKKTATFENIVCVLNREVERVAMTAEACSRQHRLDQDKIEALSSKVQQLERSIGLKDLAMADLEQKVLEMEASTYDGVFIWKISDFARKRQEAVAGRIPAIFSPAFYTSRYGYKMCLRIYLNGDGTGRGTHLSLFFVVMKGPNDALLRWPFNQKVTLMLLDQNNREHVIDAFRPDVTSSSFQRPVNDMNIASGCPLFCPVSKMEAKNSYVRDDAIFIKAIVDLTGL", "UniProt Q08J23, whole entry, looked up": "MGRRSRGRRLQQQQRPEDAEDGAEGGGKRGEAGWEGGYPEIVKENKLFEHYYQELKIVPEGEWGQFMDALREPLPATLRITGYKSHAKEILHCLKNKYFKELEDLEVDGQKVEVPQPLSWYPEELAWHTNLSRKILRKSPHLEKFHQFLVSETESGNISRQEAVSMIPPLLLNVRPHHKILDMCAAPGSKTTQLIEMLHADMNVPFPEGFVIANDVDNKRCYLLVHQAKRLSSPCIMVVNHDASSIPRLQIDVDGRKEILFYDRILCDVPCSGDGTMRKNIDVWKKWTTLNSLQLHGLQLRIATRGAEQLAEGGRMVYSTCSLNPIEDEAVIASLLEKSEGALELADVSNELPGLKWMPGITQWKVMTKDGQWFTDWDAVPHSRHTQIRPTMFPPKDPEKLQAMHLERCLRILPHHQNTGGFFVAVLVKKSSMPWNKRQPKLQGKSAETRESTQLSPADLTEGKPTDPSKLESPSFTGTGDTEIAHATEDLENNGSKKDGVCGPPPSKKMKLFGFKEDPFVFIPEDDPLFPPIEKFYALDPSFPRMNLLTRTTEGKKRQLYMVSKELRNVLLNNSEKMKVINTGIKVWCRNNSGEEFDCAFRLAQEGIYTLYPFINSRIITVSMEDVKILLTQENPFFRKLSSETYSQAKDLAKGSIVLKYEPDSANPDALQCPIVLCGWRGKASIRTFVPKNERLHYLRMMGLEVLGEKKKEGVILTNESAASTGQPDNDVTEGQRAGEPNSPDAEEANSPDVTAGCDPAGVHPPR", "UniProt Q12770": "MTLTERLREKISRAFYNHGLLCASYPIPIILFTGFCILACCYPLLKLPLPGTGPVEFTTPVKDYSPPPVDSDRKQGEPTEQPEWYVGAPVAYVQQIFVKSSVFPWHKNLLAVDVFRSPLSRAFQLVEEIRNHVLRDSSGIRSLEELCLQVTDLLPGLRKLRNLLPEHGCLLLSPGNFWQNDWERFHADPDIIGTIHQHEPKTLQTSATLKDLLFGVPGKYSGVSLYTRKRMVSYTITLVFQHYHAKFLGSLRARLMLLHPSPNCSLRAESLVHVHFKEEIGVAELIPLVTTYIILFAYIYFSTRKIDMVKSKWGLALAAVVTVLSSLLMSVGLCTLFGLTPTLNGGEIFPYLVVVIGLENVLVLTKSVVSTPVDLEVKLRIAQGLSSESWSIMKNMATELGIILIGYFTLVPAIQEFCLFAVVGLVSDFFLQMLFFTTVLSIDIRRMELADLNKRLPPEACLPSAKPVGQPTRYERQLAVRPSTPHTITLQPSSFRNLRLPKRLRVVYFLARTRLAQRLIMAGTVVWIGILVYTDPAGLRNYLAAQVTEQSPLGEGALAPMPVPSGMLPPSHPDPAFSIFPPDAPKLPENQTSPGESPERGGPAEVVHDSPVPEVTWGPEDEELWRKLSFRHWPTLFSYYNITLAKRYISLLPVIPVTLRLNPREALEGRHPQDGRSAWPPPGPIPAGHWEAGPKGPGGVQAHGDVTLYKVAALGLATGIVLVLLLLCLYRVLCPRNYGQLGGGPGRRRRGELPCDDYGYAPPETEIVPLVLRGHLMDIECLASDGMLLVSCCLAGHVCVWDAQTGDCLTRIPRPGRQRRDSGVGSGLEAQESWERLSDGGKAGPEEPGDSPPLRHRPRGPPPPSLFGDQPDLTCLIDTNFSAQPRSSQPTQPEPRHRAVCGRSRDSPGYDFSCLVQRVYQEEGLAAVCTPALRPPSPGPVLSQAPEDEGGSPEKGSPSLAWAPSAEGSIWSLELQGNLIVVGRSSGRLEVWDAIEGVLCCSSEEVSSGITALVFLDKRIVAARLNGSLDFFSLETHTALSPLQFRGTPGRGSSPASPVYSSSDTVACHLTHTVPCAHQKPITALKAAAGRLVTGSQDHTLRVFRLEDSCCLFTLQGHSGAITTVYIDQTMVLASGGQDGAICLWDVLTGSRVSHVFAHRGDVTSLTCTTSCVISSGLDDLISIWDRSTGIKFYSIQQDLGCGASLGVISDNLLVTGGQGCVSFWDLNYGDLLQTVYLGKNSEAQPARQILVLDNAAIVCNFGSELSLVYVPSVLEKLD", "UniProt Q06210": "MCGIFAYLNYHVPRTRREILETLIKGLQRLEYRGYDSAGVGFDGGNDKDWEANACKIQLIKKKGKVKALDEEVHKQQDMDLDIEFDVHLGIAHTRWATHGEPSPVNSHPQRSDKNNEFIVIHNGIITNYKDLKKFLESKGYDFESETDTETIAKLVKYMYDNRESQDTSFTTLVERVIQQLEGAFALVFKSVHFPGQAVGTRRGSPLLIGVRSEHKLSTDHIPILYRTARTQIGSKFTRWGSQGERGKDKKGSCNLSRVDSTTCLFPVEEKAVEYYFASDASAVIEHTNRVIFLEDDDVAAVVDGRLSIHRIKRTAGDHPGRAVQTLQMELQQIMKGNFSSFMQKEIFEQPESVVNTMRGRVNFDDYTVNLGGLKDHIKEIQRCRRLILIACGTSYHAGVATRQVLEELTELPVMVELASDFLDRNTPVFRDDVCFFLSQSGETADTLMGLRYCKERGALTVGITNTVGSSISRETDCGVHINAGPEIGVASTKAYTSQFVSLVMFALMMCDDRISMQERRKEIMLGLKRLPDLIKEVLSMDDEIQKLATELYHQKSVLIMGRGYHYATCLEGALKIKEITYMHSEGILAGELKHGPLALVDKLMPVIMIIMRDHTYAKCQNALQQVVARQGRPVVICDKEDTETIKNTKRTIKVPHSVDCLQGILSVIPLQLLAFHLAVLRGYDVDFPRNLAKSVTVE", "UniProt Q08211, whole entry, looked up": "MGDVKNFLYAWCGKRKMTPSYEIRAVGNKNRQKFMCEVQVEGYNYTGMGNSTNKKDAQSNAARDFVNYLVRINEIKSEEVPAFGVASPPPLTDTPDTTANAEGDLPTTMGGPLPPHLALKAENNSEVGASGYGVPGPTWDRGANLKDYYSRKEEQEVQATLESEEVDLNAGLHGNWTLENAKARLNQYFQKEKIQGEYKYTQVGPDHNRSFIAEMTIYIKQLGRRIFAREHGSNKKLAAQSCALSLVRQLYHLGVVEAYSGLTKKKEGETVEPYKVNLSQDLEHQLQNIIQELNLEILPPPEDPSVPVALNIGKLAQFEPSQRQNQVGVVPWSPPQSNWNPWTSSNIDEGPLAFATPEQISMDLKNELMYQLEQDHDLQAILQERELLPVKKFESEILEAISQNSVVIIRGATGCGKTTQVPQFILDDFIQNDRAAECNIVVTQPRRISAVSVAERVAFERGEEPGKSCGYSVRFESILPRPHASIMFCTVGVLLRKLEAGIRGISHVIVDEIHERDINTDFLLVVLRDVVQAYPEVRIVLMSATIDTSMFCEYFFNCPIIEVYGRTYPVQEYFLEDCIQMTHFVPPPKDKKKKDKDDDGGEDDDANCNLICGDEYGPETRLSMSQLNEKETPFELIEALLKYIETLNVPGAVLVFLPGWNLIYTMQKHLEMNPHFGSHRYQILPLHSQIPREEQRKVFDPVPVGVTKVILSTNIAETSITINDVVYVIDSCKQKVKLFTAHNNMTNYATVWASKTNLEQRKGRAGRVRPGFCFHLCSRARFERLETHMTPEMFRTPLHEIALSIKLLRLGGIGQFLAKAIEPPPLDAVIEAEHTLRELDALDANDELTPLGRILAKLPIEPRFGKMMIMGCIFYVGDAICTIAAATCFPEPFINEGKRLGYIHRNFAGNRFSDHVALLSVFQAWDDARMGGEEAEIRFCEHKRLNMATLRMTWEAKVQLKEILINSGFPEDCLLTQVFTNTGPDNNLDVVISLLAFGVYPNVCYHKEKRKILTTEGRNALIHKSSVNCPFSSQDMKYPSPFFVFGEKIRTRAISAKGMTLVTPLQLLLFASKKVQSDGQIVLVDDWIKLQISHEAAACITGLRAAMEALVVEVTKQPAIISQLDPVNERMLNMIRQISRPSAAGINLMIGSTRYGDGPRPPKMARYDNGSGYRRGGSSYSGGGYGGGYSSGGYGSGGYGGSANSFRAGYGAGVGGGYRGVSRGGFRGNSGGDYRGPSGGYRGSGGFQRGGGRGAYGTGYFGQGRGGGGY", "UniProt Q13098": "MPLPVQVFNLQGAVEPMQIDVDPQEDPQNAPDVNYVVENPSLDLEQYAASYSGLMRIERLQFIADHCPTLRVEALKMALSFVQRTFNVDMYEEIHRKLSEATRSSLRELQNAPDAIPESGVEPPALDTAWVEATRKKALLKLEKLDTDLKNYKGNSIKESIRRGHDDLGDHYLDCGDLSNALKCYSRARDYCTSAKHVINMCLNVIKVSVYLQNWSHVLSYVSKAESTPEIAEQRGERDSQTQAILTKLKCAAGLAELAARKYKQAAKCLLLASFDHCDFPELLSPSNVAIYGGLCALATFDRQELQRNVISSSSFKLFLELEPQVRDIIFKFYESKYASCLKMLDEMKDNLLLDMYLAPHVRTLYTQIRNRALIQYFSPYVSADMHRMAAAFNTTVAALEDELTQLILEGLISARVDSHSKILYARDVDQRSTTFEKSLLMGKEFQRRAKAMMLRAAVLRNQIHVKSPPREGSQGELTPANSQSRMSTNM", "UniProt Q13049": "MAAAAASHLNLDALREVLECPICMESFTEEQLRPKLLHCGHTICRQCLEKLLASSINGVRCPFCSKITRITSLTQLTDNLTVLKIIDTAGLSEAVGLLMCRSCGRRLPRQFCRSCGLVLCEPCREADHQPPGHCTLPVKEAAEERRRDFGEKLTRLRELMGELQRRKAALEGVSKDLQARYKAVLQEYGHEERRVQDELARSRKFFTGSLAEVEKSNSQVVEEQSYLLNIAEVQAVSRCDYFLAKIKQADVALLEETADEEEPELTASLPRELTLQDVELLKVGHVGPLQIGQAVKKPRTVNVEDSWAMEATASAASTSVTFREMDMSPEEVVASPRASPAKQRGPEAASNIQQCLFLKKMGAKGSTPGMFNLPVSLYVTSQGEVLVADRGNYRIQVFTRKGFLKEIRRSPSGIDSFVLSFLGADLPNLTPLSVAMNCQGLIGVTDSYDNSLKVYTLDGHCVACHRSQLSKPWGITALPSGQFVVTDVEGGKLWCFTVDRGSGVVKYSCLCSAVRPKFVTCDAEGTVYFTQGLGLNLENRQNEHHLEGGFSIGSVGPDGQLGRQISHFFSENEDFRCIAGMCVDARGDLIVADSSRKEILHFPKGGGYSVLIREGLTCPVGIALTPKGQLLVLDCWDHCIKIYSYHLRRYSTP", "UniProt Q12788": "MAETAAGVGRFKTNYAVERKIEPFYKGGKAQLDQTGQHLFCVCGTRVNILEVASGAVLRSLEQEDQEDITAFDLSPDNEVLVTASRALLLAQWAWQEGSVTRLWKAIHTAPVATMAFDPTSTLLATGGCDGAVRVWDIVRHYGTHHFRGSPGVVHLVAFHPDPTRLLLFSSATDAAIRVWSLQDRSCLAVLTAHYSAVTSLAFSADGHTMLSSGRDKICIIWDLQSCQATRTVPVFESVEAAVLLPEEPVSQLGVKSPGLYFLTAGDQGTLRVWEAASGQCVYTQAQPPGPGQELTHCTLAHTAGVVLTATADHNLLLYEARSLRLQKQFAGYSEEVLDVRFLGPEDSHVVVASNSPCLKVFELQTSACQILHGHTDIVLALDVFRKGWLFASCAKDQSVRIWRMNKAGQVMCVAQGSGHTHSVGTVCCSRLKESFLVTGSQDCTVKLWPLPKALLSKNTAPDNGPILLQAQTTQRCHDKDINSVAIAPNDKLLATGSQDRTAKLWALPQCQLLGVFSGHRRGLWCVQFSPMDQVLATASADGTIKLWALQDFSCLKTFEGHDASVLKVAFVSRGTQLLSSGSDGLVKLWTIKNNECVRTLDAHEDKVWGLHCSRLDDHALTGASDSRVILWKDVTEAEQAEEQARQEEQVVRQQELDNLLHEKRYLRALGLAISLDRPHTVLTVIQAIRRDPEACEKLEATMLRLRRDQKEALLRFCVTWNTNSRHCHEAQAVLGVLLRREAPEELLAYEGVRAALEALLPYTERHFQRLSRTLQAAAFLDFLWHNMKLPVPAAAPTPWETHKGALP"},
  "source": "the supplement of paper PMC11006884",
  "note": "Shown are results outside the selection of targets with a hit, which stands elsewhere. This is a noisy data set. This is a selection; strong and weak results do not stand in their true shares.",
  "data": [
    {"compound": "COC(=O)/C=C/c1ccccc1 [methyl cinnamate]", "assay": "log2 ratio of iodoacetamide-alkyne labeling of the cysteine site, DMSO over compound (competition); higher = stronger covalent engagement of the cysteine by the compound, active = 1 or more", "details": "500 µM; treatment time 1 h; system: HEK293T cell lysate", "summary_of_the_method": "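Reporter intensities give each cysteine's log2 competition ratio as the mean of control channels over the mean of compound channels. The samples were HEK293T lysate (2 mg/mL) given vehicle or electrophile (500 µM, 1 h, ambient temperature), then iodoacetamide alkyne (1 h), followed by click coupling to sCIP-TMT reagents, pooling, trypsin digestion overnight at 37 °C, streptavidin enrichment, acid elution, Orbitrap Eclipse LC-MS/MS with FAIMS and FragPipe quantification. Duplicate channels and three replicates were run, and cysteines quantified in only one replicate were discarded.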", "values": [
      {"target": "PSME1 C22 (UniProt Q06323)", "log2 ratio of iodoacetamide-alkyne labeling": "inactive: 0.672"},
      {"target": "EXOSC9 C9 (UniProt Q06265)", "log2 ratio of iodoacetamide-alkyne labeling": "inactive: 0.197"},
      {"target": "PTK7 C911 (UniProt Q13308)", "log2 ratio of iodoacetamide-alkyne labeling": "inactive: -0.0317"},
      {"target": "UniProt Q13155_C23", "log2 ratio of iodoacetamide-alkyne labeling": "inactive: -0.117"},
      {"target": "CHAF1A C190 (UniProt Q13111)", "log2 ratio of iodoacetamide-alkyne labeling": "inactive: 0.679"},
      {"target": "TRIM28 C717 (UniProt Q13263)", "log2 ratio of iodoacetamide-alkyne labeling": "inactive: -0.117"},
      {"target": "SCRN1 C324 (UniProt Q12765)", "log2 ratio of iodoacetamide-alkyne labeling": "inactive: 0.366"},
      {"target": "TRAF2 C287 (UniProt Q12933)", "log2 ratio of iodoacetamide-alkyne labeling": "inactive: 0.092"},
      {"target": "NSUN2 C184 (UniProt Q08J23)", "log2 ratio of iodoacetamide-alkyne labeling": "inactive: -0.133"},
      {"target": "SCAP C875 (UniProt Q12770)", "log2 ratio of iodoacetamide-alkyne labeling": "inactive: 0.269"},
      {"target": "GFPT1 C264 (UniProt Q06210)", "log2 ratio of iodoacetamide-alkyne labeling": "inactive: 0.0392"},
      {"target": "PTPN11 C567 (UniProt Q06124)", "log2 ratio of iodoacetamide-alkyne labeling": "inactive: 0.366"},
      {"target": "EIF4G1 C1516 (UniProt Q04637)", "log2 ratio of iodoacetamide-alkyne labeling": "inactive: -0.42"},
      {"target": "UniProt Q13247_C61", "log2 ratio of iodoacetamide-alkyne labeling": "inactive: -0.0475"},
      {"target": "DHX9 C415 (UniProt Q08211)", "log2 ratio of iodoacetamide-alkyne labeling": "inactive: 0.207"},
      {"target": "EIF3I C160 (UniProt Q13347)", "log2 ratio of iodoacetamide-alkyne labeling": "inactive: 0.0449"},
      {"target": "GPS1 C175 (UniProt Q13098)", "log2 ratio of iodoacetamide-alkyne labeling": "inactive: 0.0483"},
      {"target": "GTF3C1 C42 (UniProt Q12789)", "log2 ratio of iodoacetamide-alkyne labeling": "inactive: 0.298"},
      {"target": "CBX3 C69 (UniProt Q13185)", "log2 ratio of iodoacetamide-alkyne labeling": "inactive: 0.099"},
      {"target": "DST C4370 (UniProt Q03001)", "log2 ratio of iodoacetamide-alkyne labeling": "inactive: 0.297"},
      {"target": "TRIM32 C23 (UniProt Q13049)", "log2 ratio of iodoacetamide-alkyne labeling": "inactive: -0.455"},
      {"target": "TRAF2 C129 (UniProt Q12933)", "log2 ratio of iodoacetamide-alkyne labeling": "inactive: 0.206"},
      {"target": "TARDBP C39 (UniProt Q13148)", "log2 ratio of iodoacetamide-alkyne labeling": "inactive: 0.0573"},
      {"target": "AKAP13 C1276 (UniProt Q12802)", "log2 ratio of iodoacetamide-alkyne labeling": "inactive: 0.0929"},
      {"target": "ACACA C2075 (UniProt Q13085)", "log2 ratio of iodoacetamide-alkyne labeling": "inactive: 0.0138"},
      {"target": "ACACA C1230 (UniProt Q13085)", "log2 ratio of iodoacetamide-alkyne labeling": "inactive: 0.0583"},
      {"target": "UBE3A C843 (UniProt Q05086)", "log2 ratio of iodoacetamide-alkyne labeling": "inactive: 0.0284"},
      {"target": "TRIM28 C628 (UniProt Q13263)", "log2 ratio of iodoacetamide-alkyne labeling": "inactive: -0.187"},
      {"target": "UniProt Q0D2I5_C349", "log2 ratio of iodoacetamide-alkyne labeling": "inactive: 0.304"},
      {"target": "UniProt Q13155_C168", "log2 ratio of iodoacetamide-alkyne labeling": "inactive: 0.257"},
      {"target": "KLC1 C55 (UniProt Q07866)", "log2 ratio of iodoacetamide-alkyne labeling": "inactive: 0.338"},
      {"target": "EIF4G1 C662 (UniProt Q04637)", "log2 ratio of iodoacetamide-alkyne labeling": "inactive: 0.123"},
      {"target": "SOS1 C926 (UniProt Q07889)", "log2 ratio of iodoacetamide-alkyne labeling": "inactive: 0.0176"},
      {"target": "EHHADH C559 (UniProt Q08426)", "log2 ratio of iodoacetamide-alkyne labeling": "inactive: 0.144"},
      {"target": "GRSF1 C173 (UniProt Q12849)", "log2 ratio of iodoacetamide-alkyne labeling": "inactive: -0.0175"},
      {"target": "PRDX4 C245 (UniProt Q13162)", "log2 ratio of iodoacetamide-alkyne labeling": "inactive: 0.227"},
      {"target": "TBL3 C696 (UniProt Q12788)", "log2 ratio of iodoacetamide-alkyne labeling": "inactive: 0.105"},
      {"target": "CHAF1A C181 (UniProt Q13111)", "log2 ratio of iodoacetamide-alkyne labeling": "inactive: -0.0613"}
    ]}
  ]
}
